Source: PubChem BioAssay AID1224904 (Broad Institute, 2016).

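293T-iDUX4 dual-reporter cells; luminescence of the tet-on Italica luciferase control is read after 24 h.
The test concentration is not given here.
Percent change in the Italica control signal; more negative values mean stronger inhibition, which points to nonspecific, tet-on or cytotoxic effects.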

Values are in %.
Common to all entries: measured here: Italica tet-on control reporter.
This is a side read-out of the assay, for part of the compounds, not drawn at random.

Compound	activity change (%)
O=C(C1CCC1)N1CC[C@@H]2[C@H]1c1cc(-c3cccc(F)c3)ccc1N[C@@H]2CO	-19.21
C[C@@H]1CN([C@@H](C)CO)C(=O)c2ccccc2-c2ccccc2CO[C@H]1CN(C)C(=O)Nc1cccc(C(F)(F)F)c1	-20.12
C[C@@H]1CN([C@H](C)CO)C(=O)c2c(c3ccccc3n2C)-c2ccccc2CO[C@@H]1CN(C)C	-5.081
COc1ccccc1C#Cc1ccc([C@H]2[C@H](CO)N3CCCCN(S(C)(=O)=O)C[C@@H]23)cc1	6.974
O=S(=O)(c1cccs1)N1CCCCN2[C@@H](CO)[C@H](c3ccc(C4=CCCC4)cc3)[C@@H]2C1	-10.79
COc1cccc(S(=O)(=O)N2CCCCN3[C@H](C2)[C@H](c2ccc(C#CCC(C)C)cc2)[C@@H]3CO)c1	-22.15
O=C(C[C@@H]1CC[C@H]2[C@@H](COC[C@@H](O)CN2S(=O)(=O)c2ccc(Cl)cc2)O1)NCc1ccc(Cl)c(Cl)c1	-50.16
C[C@H]1CN([C@@H](C)CO)C(=O)c2c(c3ccccc3n2C)-c2ccccc2CO[C@H]1CN(C)C(=O)[C@@H](Cc1ccccc1)N(C)C	-29.43
COc1ccc2c3c(n(C)c2c1)[C@@H](CO)N(Cc1ccccc1)CC31CCN(CC2CC2)CC1	-39.8
CCCNC(=O)N1[C@H](CO)[C@@H](c2ccccc2C2=CCCCC2)[C@@H]1C#N	-18.12
O=C(Nc1ccc(F)cc1)N1CCCCN2[C@H](C1)[C@@H](c1ccc(C#CC3CC3)cc1)[C@@H]2CO	-15.67
COc1ccccc1S(=O)(=O)N1CC[C@H]2[C@H](CO)Nc3ccc(-c4cccc(C#N)c4)cc3[C@H]21	-49.96
Cc1ccc(S(=O)(=O)N2CC[C@@H]3[C@@H](CO)N(C)c4ccc(C#Cc5cccnc5)cc4[C@@H]32)cc1	-29.82
CO[C@H]1CN(C)C(=O)c2ccc(NC(=O)Nc3ccc(C(F)(F)F)cc3)cc2OC[C@@H](C)NC[C@@H]1C	-12.56
O=C(Nc1ccccc1F)N1CC(=O)N2[C@@H](CO)[C@@H](c3ccc(-c4cccnc4)cc3)[C@@H]2C1	3.642
COc1ccccc1NC(=O)N1C[C@@H]2N[C@H](C1)C2c1ccc(-c2cccc(C#N)c2)cc1 (some centres not stated)	-19.9
Cc1ccccc1S(=O)(=O)N1CC[C@@H]2[C@@H](CO)N(C)c3ccc(-c4cccc(C#N)c4)cc3[C@@H]21	-27.33
N#Cc1cccc(-c2ccc(C3[C@@H]4CN(C(=O)Nc5ccc(C(F)(F)F)cc5)C[C@H]3N4)cc2)c1 (some centres not stated)	-3.918
C(=C\c1ccc(C2[C@@H]3CN(Cc4cocn4)C[C@H]2N3)cc1)/c1ccccc1 (some centres not stated)	-15.9
N#C[C@@H]1[C@@H](c2ccccc2-c2ccc(F)cc2)[C@H](CO)N1C(=O)NC1CCCCC1	-24.81
O=C(C[C@H]1CC[C@@H]2[C@H](COC[C@@H](O)CN2Cc2ccc3c(c2)OCO3)O1)Nc1ccc(-c2ccccc2)cc1	-55.92
O=C(C[C@@H]1CC[C@@H]2[C@H](COC[C@H](O)CN2Cc2nccs2)O1)NCc1ccc(-c2ccccc2)cc1	-19.84
COc1ccc(C#Cc2ccc([C@@H]3[C@H]4CN(C(=O)C5CCOCC5)CC(=O)N4[C@H]3CO)cc2)cc1	-11.78
COc1ccc(S(=O)(=O)N(C)C[C@@H]2OCc3ccccc3-c3ccccc3C(=O)N([C@H](C)CO)C[C@@H]2C)cc1	-7.869
C/C=C/c1ccc2c(c1)[C@H]1[C@H](CCN1C(=O)c1ccc3c(c1)OCO3)[C@H](CO)N2	-3.359
Cc1ccc(OC(=O)N(C)C[C@@H]2OCc3ccccc3-c3c(n(C)c4ccccc34)C(=O)N([C@H](C)CO)C[C@@H]2C)cc1	-14.07
CN(C)C(=O)c1cccc(-c2ccc3c(c2)[C@@H]2[C@@H](CCN2C(=O)c2cnccn2)[C@@H](CO)N3)c1	-4.233
O=C(C[C@H]1CC[C@H]2[C@@H](COC[C@@H](O)CN2Cc2cccc(C(F)(F)F)c2)O1)NCc1ccc(F)cc1	-3.505
COc1ccc2c3c(n(C)c2c1)[C@H](CO)NCC31CCN(C(=O)Nc2ccccc2F)CC1	-7.747
COc1ccc(-c2ccc3c(c2)[C@H]2[C@H](CCN2C(=O)c2cccc(F)c2)[C@@H](CO)N3)cc1	-64.42
COC(=O)[C@@H]1[C@@H](CO)[C@@H]2Cn3c(ccc(-c4ccccc4)c3=O)[C@@H]2N1CC1CCCCC1	-20.99
CCCNC(=O)N1CC2(CCN(Cc3cccc(OC)c3)CC2)c2c([nH]c3cc(OC)ccc23)[C@H]1CO	-48.17
O=C(C[C@@H]1CC[C@@H]2[C@H](COC[C@H](O)CN2Cc2ccc(C(F)(F)F)cc2)O1)N1CCc2ccccc2C1	-4.249
O=C(CCN1CCCCC1)N[C@H]1CC[C@@H](CC(=O)N2CCC(Cc3ccccc3)CC2)O[C@@H]1CO	-1.439
C/C=C/c1ccc([C@H]2[C@H](CO)N3CCCCN(S(=O)(=O)c4cccc(C)c4)C[C@@H]23)cc1	-12.49
OC[C@H]1[C@H](c2ccc(/C=C/c3ccccc3)cc2)[C@@H]2CN(Cc3ccncc3)CCCCN12	-9.901
O=C(C[C@H]1CC[C@@H]2[C@H](COC[C@H](O)CN2CCc2ccccc2)O1)NCc1ccc(Oc2ccccc2)cc1	-19.76
O=C(Nc1ccccc1)N1CCCCN2[C@H](C1)[C@@H](c1ccc(C3=CCCCC3)cc1)[C@@H]2CO	-12.1
C[C@H]1CN([C@@H](C)CO)C(=O)c2ccccc2-c2ccccc2CO[C@@H]1CN(C)Cc1ccccc1C(F)(F)F	-69.13
COc1cccc(-c2ccc3c(c2)[C@@H]2[C@@H](CCN2C(=O)c2ccccn2)[C@@H](CO)N3C)c1	-4.623
O=C(C[C@H]1C[C@@H]2c3cc(NC(=O)Nc4ccccc4F)ccc3O[C@@H]2[C@@H](CO)O1)NC1CCCCC1	-14.51
C[C@H](CO)N1C[C@H](C)[C@@H](CN(C)C(=O)Nc2cccc(F)c2)OCc2ccccc2-c2c(n(C)c3ccccc23)C1=O	-50.22
CO[C@H]1CN(C)C(=O)c2cc(NC(=O)Nc3ccc(Cl)c(Cl)c3)ccc2OC[C@@H](C)NC[C@H]1C	-6.368
O=C(C[C@@H]1CC[C@H]2[C@@H](COC[C@H](O)CN2Cc2nccs2)O1)NCc1ccc(-c2ccccc2)cc1	-31.84
N#C[C@@H]1[C@H](c2ccccc2/C=C/c2ccccc2)[C@H](CO)N1S(=O)(=O)c1ccccc1	-43.98
O=C(Cc1ccccn1)N[C@H]1CC[C@H](CCNS(=O)(=O)c2cccc(F)c2)O[C@H]1CO	-44.37
O=C(C[C@H]1C[C@@H]2c3cc(NC(=O)C4CCOCC4)ccc3O[C@@H]2[C@@H](CO)O1)NCc1ccc(Oc2ccccc2)cc1	-16.71
Cc1ccccc1-c1ccc([C@@H]2[C@H](CO)N3CCCCN(S(=O)(=O)c4ccc(F)cc4)C[C@@H]23)cc1	1.622